The values below come from patent publication US5756684.

Protein sequences, listed by entry. Tags and fused reporters are not part of them. Residues count along the entry.
UniProt Q00577, 2-322: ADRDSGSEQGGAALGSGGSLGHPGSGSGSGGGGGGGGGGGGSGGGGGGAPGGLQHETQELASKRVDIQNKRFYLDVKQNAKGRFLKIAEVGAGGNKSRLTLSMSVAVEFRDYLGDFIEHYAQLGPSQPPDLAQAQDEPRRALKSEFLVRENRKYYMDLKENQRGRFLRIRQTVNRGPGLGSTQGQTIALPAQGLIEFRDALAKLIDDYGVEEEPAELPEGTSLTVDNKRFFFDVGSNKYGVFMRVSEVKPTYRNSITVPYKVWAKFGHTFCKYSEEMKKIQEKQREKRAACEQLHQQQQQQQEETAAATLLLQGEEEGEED

Where cells or extracts were used, other partners may take part. For some of these results: A negative result means that nothing was seen under these conditions. For some of these results: A weaker result is weaker than the reference pair of the same experiment.

In data set [1] the target is Pur (PUR factor, HeLa nuclear extract) (Homo sapiens) (UniProt Q00577). The data set can be described thus: competition with a labelled probe. To be noted: protein in an extract, single-stranded DNA.
For data set [2] the target is unchanged. Nature of the data set: EMSA. To be noted: protein in an extract, single-stranded DNA. (In general: In EMSA bound probe runs differently from free probe, usually more slowly.)

As to “ATCCCTTCTCCCTCTCCCTCATCA [DF3506 (dhfr C-T)]”, the binding result in data set [1] (no competition at 100x excess) is reported as “no binding”.
Turning to “GGAGATAGTAGAGGGAGAGAAAAG [MB0677 (Mut. III)]”, the binding result in data set [2] (binds weakly as probe, least able to compete) is “binds more weakly”.
On to “GGAGATAGTGGAGGGAAAGAAAAG [MA0677 (Mut. II)]”, for which the binding result in data set [2] was “binds more weakly”.
Consider “GGAGGTGGTGGAGGGAGAGAAAAG [MF0677 (c-myc PUR element, purine strand)]”, for which the binding result in data set [2] (HeLa nuclear extract, 45 mM KCl, pH 7.9, 30 C, also UV cross-linked (FIG. 4), G contacts by methylation interference (FIG. 5), label: 5'-32P) is listed as “binds”.
As for TACTGAATTCACTTAACACT [MF0562], in data set [1] (no competition at 100x excess), the binding result is given as “no binding”.
In the case of TCTCAAGCTTGGTCCCTCAC [MR0740], the binding result in data set [1] (no inhibition up to 300-fold) is on record as “no binding”.
“TGATGAGGGAGAGGGAGAAGGGAT [DR3529 (dhfr G-A)]”: in data set [2], the binding result is “binds”.
